{"source": "patent US20140170137A1", "biological_target": "Staphylococcus Protein A (Staphylococcus) (UniProt P38507)", "assay": "Protein A chromatography", "note": "These are yes or no findings as the source states them, for the method shown. Some binding calls cover weakened binding; strength is not graded here.", "data": [{"binder": "caN-HCB-kLC (antibody) heavy: EVQLVESGGDLVNPGGTLTLSCVVSGFSLTNNNVNWVRQALGRGLEWVGGVWAGGATDYNSALKSRLTITRDTSKSTVFLKMHSLQSEDTATYYCARDGGYSSSTLYAMDAWGQGTLVTVSSASTTAPSVFPLAPSCGSTSGSTVALACLVSGYFPEPVTVSWNSGSLTSGVHTFPSVLQSSGLYSLSSMVTVPSSRWPSETFTCNVAHPASKTKVDKPVPKRENGRVPRPPDCPKCPAPEMLGGPSVFIFPPKPKDTLLIARTPEVTCVVVDLDPEDPEVQISWFVDGKQMQTAKTQPREEQFNGTYRVVSVLPIGHQDWLKGKQFTCKVNNKALPSPIERTISKARGQAHQPSVYVLPPSREELSKNTVSLTCLIKDFYPPDIDVEWQSNGQQEPESKYRTTPPQLDEDGSYFLYSKLSVDKSRWQRGDTFICAVMHEALHNHYTQESLSHSPGK light: DIQMTQSPASLSLSQEEKVTITCRASEDIYNALAWYQQKPGQAPKLLIYNTDTLHTGVPSRFSGSGSGTEYSLTINSLESEDVAVYFCQHYFHYPRTFGAGTKVELKRNDAQPAVYLFQPSPDQLHTGSASVVCLLNSFYPKDINVKWKVDGVIQDTGIQESVTEQDKDSTYSLSSTLTMSSTEYLSHELYSCEITHKSLPSTLIKSFQRSECQRVD", "values": [{"measurement": "binding", "result": "binds"}]}]}
